Test results reported in patent publication US8188138B2, “Sulphonylpyrrole hydrochloride salts as histone deacetylases inhibitors” (4SC AG, priority 2005, dated 2012).
For some assays here: At least one read-out could not be matched to a standard name with certainty. Some entries repeat one wording, which the source may state once for all of them. Some results were stated once for a whole list of compounds, not compound by compound.

Protein sequences, listed by entry. Tags and fused reporters are not part of them.
UniProt Q13547, whole entry: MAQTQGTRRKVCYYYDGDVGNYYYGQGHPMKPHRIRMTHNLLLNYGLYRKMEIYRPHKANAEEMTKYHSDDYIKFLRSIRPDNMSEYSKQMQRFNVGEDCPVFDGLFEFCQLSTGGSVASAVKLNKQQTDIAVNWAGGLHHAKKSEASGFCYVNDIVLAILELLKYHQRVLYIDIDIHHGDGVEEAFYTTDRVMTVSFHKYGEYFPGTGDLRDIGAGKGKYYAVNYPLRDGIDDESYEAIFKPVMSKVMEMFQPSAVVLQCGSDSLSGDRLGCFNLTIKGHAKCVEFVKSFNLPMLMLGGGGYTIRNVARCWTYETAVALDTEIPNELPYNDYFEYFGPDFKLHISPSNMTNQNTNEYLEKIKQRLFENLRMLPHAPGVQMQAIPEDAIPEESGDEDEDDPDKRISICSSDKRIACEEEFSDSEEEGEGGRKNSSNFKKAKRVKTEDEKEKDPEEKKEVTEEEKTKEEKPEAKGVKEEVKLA

Legend:
[1] = molecular target: T1, Recombinant human HDAC1 expressed in Hek293 cells (Homo sapiens, UniProt Q13547); assay: HDAC1 enzymatic assay with recombinant flag-HDAC1; format: biochemical; details: flag-HDAC1 from Hek293 cells; bound stated for the listed group
T1 construct: made in house

[2] = test system: MDA-MB468, HCT116 and A549 cell lines; assay: Combination experiments with chemotherapeutic anti-cancer agents; format: cell-based; details: example at about its IC50 combined with Taxol, Docetaxel, 5-FU, Gemcitabine, Irinotecan, Doxorubicin, Mafosfamide, Carboplatin, Cisplatin

O=C(/C=C/c1ccn(S(=O)(=O)c2ccc(CN3CCOCC3)cc2)c1)NO [Compound 27, (E)-N-Hydroxy-3-[1-(4-morpholin-4-ylmethyl-benzenesulfonyl)-1H-pyrrol-3-yl]-acrylamide]
IC50 [1]: ≥ 0.95 nM

O=C(/C=C/c1ccn(S(=O)(=O)c2ccc(-c3ccccc3)cc2)c1)NO [Compound 3, (E)-3-[1-(Biphenyl-4-sulfonyl)-1H-pyrrol-3-yl]-N-hydroxy-acrylamide]
IC50 [1]: ≥ 0.95 nM | Effect of combination on IC50 of the chemotherapeutic agent [2]: additive effects

Nc1ccccc1NC(=O)/C=C/c1ccn(S(=O)(=O)c2ccc(-c3ccccc3)cc2)c1 [Compound 7, (E)-N-(2-Amino-phenyl)-3-[1-(biphenyl-4-sulfonyl)-1H-pyrrol-3-yl]-acrylamide]
IC50 [1]: ≥ 0.95 nM

CN(C)c1ccc(S(=O)(=O)n2ccc(/C=C/C(=O)NO)c2)cc1 [Compound 4, (E)-3-[1-(4-Dimethylamino-benzenesulfonyl)-1H-pyrrol-3-yl]-N-hydroxy-acrylamide]
IC50 [1]: ≥ 0.95 nM

CN(C)c1ccc(S(=O)(=O)n2ccc(/C=C/C(=O)Nc3ccccc3N)c2)cc1 [Compound 8, (E)-N-(2-Amino-phenyl)-3-[1-(4-dimethylamino-benzenesulfonyl)-1H-pyrrol-3-yl]-acrylamide]
IC50 [1]: ≥ 0.95 nM

O=C(/C=C/c1ccn(S(=O)(=O)c2ccc(CNCc3cccnc3)cc2)c1)NO [Compound 11, (E)-N-Hydroxy-3-[1-(4-{[(pyridin-3-ylmethyl)-amino]-methyl}-benzenesulfonyl)-1H-pyrrol-3-yl]-acrylamide]
IC50 [1]: ≥ 0.95 nM

O=C(/C=C/c1ccn(S(=O)(=O)c2ccc(-c3ccccn3)s2)c1)NO [Compound 24, (E)-N-Hydroxy-3-[1-(5-pyridin-2-yl-thiophene-2-sulfonyl)-1H-pyrrol-3-yl]-acrylamide]
IC50 [1]: ≥ 0.95 nM | Effect of combination on IC50 of the chemotherapeutic agent [2]: additive effects

CN(CCc1cc2ccccc2[nH]1)Cc1ccc(S(=O)(=O)n2ccc(/C=C/C(=O)NO)c2)cc1 [Compound 9, (E)-N-Hydroxy-3-(1-[4-(([2-(1H-indol-2-yl)-ethyl]-methyl-amino)-methyl)-benzenesulfonyl]-1H-pyrrol-3-yl)-acrylamide]
IC50 [1]: ≥ 0.95 nM | Effect of combination on IC50 of the chemotherapeutic agent [2]: additive effects
